For at least one entry, the source does not settle the construct or the ends of the probe. Weaker means in comparison with the reference protein, sequence or condition of that experiment. For part of these data: At least one verdict was read from the data and is not stated in words by the source. Where a protein sequence is shown, tags need not be part of it.
Assays:
Assay in all cases: EMSA
Details in all cases: 50 mM Tris-HCl pH 7.4, 50 mM NaCl, 0.5 mM DTT, 0.025% NP40, 10% glycerol, +/- 2 mM MgCl2 or MnCl2, 50 fmol probe in 10 µl, 20 min at 21 °C, native 5% PAGE at 4 °C, recombinant protein, protein details: His-tag, label: 5'-32P
[1] = target: T1, PNPase ΔS1 del622-633 (Escherichia coli) (UniProt P05055)
T1 sequence (looked up, limits assumed): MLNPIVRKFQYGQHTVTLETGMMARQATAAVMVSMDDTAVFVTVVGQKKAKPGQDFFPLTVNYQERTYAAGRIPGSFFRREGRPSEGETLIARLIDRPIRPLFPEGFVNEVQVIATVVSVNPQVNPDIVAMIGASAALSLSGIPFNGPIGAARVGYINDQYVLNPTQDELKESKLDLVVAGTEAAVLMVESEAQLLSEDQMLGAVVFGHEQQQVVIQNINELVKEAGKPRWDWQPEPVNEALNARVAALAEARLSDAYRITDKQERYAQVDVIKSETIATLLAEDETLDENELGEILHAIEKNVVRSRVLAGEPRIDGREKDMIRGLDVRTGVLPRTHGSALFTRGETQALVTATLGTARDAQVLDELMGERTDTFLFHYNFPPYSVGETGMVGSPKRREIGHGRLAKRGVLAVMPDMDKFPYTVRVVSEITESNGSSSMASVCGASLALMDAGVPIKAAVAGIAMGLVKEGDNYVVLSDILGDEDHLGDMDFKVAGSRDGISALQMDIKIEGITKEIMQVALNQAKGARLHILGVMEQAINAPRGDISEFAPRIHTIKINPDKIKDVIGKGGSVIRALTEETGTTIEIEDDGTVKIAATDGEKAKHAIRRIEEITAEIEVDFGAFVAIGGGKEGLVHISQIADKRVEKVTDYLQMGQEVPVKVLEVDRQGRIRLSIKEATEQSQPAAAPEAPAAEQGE

[2] = target: T2, PNPase ΔKH del603-615 (Escherichia coli) (UniProt P05055)
T2 sequence (looked up, limits assumed): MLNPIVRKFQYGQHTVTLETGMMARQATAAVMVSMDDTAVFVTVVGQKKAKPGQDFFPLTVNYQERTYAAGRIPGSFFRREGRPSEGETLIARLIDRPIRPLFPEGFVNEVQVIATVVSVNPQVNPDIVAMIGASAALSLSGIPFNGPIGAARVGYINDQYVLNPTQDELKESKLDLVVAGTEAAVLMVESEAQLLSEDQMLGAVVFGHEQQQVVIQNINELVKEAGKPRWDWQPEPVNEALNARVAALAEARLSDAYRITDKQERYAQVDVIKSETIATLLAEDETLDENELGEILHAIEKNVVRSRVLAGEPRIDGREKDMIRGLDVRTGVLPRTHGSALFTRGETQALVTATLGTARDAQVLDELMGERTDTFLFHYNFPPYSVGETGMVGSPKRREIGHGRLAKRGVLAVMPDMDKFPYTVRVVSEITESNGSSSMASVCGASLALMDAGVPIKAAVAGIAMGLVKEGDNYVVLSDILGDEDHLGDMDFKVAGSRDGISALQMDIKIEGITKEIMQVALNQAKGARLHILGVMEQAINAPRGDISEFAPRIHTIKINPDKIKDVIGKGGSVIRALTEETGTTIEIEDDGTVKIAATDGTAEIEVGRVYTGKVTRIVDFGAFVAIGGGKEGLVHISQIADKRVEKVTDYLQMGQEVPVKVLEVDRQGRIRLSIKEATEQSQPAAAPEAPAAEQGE

[3] = target: T3, PNPase wild type (Escherichia coli) (UniProt P05055)
T3 sequence (looked up, limits assumed): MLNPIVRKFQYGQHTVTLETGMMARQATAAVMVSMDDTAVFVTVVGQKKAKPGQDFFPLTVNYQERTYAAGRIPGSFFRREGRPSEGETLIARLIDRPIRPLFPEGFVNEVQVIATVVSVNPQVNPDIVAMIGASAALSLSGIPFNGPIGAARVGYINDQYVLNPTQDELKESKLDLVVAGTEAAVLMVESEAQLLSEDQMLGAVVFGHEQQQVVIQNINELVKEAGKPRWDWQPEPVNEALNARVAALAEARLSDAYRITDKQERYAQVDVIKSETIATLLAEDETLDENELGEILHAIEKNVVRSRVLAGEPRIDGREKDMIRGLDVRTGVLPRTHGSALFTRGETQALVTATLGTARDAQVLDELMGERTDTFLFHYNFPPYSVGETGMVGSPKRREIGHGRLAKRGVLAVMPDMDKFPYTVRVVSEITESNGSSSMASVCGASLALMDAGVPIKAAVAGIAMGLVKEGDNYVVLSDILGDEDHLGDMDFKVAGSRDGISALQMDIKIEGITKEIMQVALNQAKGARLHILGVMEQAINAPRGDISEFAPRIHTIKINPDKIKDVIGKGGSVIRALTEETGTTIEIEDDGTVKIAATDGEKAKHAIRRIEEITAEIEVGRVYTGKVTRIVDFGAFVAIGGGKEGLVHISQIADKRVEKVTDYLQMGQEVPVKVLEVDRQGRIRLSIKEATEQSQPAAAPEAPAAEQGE

[4] = target: T4, PNPase ΔKHS1 (Escherichia coli) (UniProt P05055)
T4 sequence (looked up, limits assumed): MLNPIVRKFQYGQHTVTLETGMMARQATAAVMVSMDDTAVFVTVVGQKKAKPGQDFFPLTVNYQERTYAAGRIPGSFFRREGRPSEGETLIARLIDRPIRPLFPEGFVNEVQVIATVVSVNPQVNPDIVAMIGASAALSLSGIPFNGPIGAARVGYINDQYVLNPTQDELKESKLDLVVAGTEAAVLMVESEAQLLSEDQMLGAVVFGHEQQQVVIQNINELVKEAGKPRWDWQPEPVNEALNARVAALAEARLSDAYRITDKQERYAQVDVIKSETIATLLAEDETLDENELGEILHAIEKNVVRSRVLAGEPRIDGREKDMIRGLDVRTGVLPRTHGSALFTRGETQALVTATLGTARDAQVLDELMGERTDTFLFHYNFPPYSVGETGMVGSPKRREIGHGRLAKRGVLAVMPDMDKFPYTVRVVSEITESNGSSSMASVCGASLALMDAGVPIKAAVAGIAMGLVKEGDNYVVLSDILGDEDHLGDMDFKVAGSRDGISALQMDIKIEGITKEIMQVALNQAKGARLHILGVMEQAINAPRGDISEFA

[5] = 2 mM MnCl2, seemed improved vs no cation, single-stranded DNA
[6] = no divalent cation, single-stranded DNA
[7] = 2 mM MgCl2, reduced vs no cation
[8] = 2 mM MnCl2, reduced vs no cation

Row | Sequence | binding result [1, 5] | binding result [1, 6] | binding result ([2]; only mildly affected, single-stranded DNA) | binding result ([3]; 2 mM MgCl2, not reduced by cation, single-stranded DNA) | binding result ([3]; 2 mM MnCl2, not reduced by cation, single-stranded DNA) | binding result [4, 5] | binding result [4, 6] | binding result ([1]; no divalent cation) | binding result ([2]; no divalent cation, milder effect) | binding result [3, 7] | binding result [3, 8] | binding result ([3]; no divalent cation) | binding result [4, 7] | binding result [4, 8] | binding result ([4]; no divalent cation)
1 | ACTGGACAAATACTCCGACG [DNA02] | binds more weakly | binds more weakly | binds more weakly | binds | binds | binds more weakly | binds more weakly | – | – | – | – | – | – | – | –
2 | ACUGGACAAAUACUCCGAGG [RNA01] | – | – | – | – | – | – | – | binds more weakly | binds more weakly | binds more weakly | binds more weakly | binds | binds more weakly | binds more weakly | binds more weakly

— PMC5379764, “Polynucleotide phosphorylase is implicated in homologous recombination and DNA repair in Escherichia coli”
